Results are given in words; binding and its absence hold for the method and conditions named. Binding seen in cells or lysates may run through a third protein. Some results given as binding are weak or reduced against the parent protein; the word gives no strength.
Molecular target: V5-tagged PICK1 (Protein interacting with C kinase 1) (human) (UniProt Q9NRD5)
Test: co-IP; HEK293T cells co-transfected with Myc-ARX and V5-PICK1 or HA-PKC; lysed in extraction buffer 1 (120 mM NaCl, 50 mM Tris-HCl pH 8.0, 0.5% NP-40); IP with anti-V5 or anti-HA overnight at 4°C, protein A sepharose; wash 250 mM NaCl, 20 mM Tris-HCl pH 8.0, 1 mM EDTA, 0.5% NP-40; immunoblot with anti-Myc

Sequences of proteins named here, by UniProt entry; tags and fusion partners are left off.
UniProt Q9NRD5: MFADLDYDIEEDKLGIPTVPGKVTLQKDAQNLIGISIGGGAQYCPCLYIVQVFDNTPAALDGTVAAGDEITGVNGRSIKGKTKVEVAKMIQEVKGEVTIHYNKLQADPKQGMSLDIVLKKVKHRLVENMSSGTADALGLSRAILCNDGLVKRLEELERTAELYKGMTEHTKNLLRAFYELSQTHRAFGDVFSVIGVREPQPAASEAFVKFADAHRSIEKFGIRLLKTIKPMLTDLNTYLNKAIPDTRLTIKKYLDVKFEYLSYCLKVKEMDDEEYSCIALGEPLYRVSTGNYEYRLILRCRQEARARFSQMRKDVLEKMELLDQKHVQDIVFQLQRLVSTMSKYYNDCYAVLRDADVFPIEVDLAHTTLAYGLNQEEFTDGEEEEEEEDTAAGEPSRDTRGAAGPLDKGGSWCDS
UniProt Q96QS3: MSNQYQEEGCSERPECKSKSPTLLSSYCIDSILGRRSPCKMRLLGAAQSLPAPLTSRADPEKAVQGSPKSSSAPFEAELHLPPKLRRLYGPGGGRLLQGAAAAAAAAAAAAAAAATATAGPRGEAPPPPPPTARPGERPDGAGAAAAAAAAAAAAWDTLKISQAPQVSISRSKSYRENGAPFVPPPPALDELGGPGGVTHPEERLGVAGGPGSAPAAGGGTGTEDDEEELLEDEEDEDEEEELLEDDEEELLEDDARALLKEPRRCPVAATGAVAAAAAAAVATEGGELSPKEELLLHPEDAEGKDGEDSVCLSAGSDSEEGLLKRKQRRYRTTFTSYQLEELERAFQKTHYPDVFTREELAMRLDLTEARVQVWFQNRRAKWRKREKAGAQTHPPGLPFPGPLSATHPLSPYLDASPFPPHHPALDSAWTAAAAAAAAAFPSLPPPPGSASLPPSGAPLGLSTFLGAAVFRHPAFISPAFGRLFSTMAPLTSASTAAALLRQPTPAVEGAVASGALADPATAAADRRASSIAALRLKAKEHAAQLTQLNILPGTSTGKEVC

Substance: Myc-tagged full-length ARX (Aristaless-related homeobox protein) (from UniProt Q96QS3 1-562)
- binding: binds
